In patent US20190359711A1 one finds binding data, which are given here for 2 molecules.

In assay [1] the target is Lysozyme. Put plainly: condition: tested at 1 µM; response unit ≥100 predicts non-specific binding; SPR (Biacore 8K), antibody passed over immobilized protein.
Assay [2] concerns the target Soy Trypsin Inhibitor (soy). Described as above.

These are yes or no findings as the source states them, for the method shown.

B1: CD3B376 (antibody, V domains shown)
VH: QVQLQQSGPRLVRPSQTLSLTCAISGDSVFNNNAAWSWIRQSPSRGLEWLGRTYYRSKWLYDYAVSVKSRITVNPDTSRNQFTLQLNSVTPEDTALYYCARGYSSSFDYWGQGTLVTVSS
VL: QSALTQPASVSGSPGQSITISCTGTSSNIGTYKFVSWYQQHPDKAPKVLLYEVSKRPSGVSSRFSGSKSGNTASLTISGLQAEDQADYHCVSYAGSGTLLFGGGTKLTVLG
Consider B1, for which the binding result in assay [1] and in assay [2] was “no binding” each time.

B2: TMEB762 (antibody, human IgG4 S228P, kappa, F234A L235A, V domains shown)
VH: EVQLLESGGGLVQPGGSLRLSCAASGFTFSSYSMSWVRQAPGKGLEWVSVISGSGGFTDYADSVKGRFTISRDNSKNTLYLQMNSLRAEDTAVYYCARMPLNSPHDYWGQGTLVTVSS
VL: DIQMTQSPSSLSASVGDRVTITCRASQGIRNDLGWYQQKPGKAPKLLIYAASSLQSGVPSRFSGSGSGTDFTLTISSLQPEDFATYYCLQDYNYPLTFGGGTKVEIKR
Consider B2, for which the binding result in assay [1] and in assay [2] was “no binding” throughout.
